Measured values taken from patent publication US20150086999A1.
Results are given in words; binding and its absence hold for the method and conditions named. Some results given as binding are weak or reduced against the parent protein; the word gives no strength.

Key:
[1] = molecular target: recombinant lipoprotein-associated phospholipase A2 (rLp-PLA2) expressed in HEK293 cells (UniProt Q13093); test: EGS chemical cross-linking, SDS-PAGE and Western blot; self-association (the same experiment as told in the summary)
[2] = molecular target: recombinant lipoprotein-associated phospholipase A2 (rLp-PLA2) expressed in HEK293 cells (UniProt Q13093); test: EGS chemical cross-linking, SDS-PAGE and Western blot; self-association

- binding [1]: binds
- binding [2]: binds
B1: recombinant lipoprotein-associated phospholipase A2 (rLp-PLA2) expressed in HEK293 cells (enzyme, UniProt Q13093 22-441, looked up)
chain: FDWQYINPVAHMKSSAWVNKIQVLMAAASFGQTKIPRGNGPYSVGCTDLMFDHTNKGTFLRLYYPSQDNDRLDTLWIPNKEYFWGLSKFLGTHWLMGNILRLLFGSMTTPANWNSPLRPGEKYPLVVFSHGLGAFRTLYSAIGIDLASHGFIVAAVEHRDRSASATYYFKDQSAAEIGDKSWLYLRTLKQEEETHIRNEQVRQRAKECSQALSLILDIDHGKPVKNALDLKFDMEQLKDSIDREKIAVIGHSFGGATVIQTLSEDQRFRCGIALDAWMFPLGDEVYSRIPQPLFFINSEYFQYPANIIKMKKCYSPDKERKMITIRGSVHQNFADFTFATGKIIGHMLKLKGDIDSNVAIDLSNKASLAFLQKHLGLHKDFDQWDCLIEGDDENLIPGTNINTTNQHIMLQNSSGIEKYN
